Test results as given in article PMC6534540.
Results are given in words; binding and its absence hold for the method and conditions named.

Target: T1, N-term biotinylated candidalysin (Candida albicans)
T1 sequence (peptide, biotin on the N-terminus): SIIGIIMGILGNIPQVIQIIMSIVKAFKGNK
Test: condition: 500 nM (250-2000 nM injected; unspecific binding at injections >500 nM due to protein aggregation); SPR; Biacore T100; N-term biotinylated candidalysin captured (up to 1000 RU) on neutravidin coupled to a CM5 chip, free sites blocked with PEG-biotin; EGFR domains injected at 250, 500, 1000 and 2000 nM at 10 µL/min; HBS-EP buffer (10 mM HEPES pH 7.4, 150 mM NaCl, 3 mM EDTA, 0.005% Surfactant P20); 25 °C; neutravidin-only reference cell; both purified

Row | Substance | binding
1 | EGFR extracellular domain (from UniProt P00533 25-645) (domain or fragment) | no binding
2 | EGFR cytoplasmic domain (from UniProt P00533 669-1210) (domain or fragment) | no binding
